According to the supplement of paper PMC12067093, “Discovery and optimisation of a covalent ligand for TRIM25 and its application to targeted protein ubiquitination” (Chemical Science, 2025):
This is one part of the list.

Chains of the proteins cited; added tags and fusions are not shown. Lines headed by an entry give the natural chain unless they say otherwise; changes in a name come on top.
UniProt P23142: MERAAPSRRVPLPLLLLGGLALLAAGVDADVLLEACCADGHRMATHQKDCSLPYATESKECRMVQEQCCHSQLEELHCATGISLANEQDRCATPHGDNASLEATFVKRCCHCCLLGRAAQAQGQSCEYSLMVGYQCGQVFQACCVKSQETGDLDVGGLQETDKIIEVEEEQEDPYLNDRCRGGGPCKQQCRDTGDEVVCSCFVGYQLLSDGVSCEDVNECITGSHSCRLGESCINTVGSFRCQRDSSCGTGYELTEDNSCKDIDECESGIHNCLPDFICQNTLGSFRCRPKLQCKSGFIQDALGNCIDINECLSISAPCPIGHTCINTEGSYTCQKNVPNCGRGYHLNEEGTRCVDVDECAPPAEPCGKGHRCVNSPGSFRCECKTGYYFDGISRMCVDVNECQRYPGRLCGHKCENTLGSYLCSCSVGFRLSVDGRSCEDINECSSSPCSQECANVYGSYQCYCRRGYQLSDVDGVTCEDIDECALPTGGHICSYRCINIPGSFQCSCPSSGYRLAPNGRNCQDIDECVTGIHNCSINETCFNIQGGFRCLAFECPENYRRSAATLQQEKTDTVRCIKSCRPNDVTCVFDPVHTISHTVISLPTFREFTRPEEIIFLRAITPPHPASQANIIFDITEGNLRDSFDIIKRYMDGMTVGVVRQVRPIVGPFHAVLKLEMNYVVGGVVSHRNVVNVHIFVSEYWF
UniProt Q9UK61: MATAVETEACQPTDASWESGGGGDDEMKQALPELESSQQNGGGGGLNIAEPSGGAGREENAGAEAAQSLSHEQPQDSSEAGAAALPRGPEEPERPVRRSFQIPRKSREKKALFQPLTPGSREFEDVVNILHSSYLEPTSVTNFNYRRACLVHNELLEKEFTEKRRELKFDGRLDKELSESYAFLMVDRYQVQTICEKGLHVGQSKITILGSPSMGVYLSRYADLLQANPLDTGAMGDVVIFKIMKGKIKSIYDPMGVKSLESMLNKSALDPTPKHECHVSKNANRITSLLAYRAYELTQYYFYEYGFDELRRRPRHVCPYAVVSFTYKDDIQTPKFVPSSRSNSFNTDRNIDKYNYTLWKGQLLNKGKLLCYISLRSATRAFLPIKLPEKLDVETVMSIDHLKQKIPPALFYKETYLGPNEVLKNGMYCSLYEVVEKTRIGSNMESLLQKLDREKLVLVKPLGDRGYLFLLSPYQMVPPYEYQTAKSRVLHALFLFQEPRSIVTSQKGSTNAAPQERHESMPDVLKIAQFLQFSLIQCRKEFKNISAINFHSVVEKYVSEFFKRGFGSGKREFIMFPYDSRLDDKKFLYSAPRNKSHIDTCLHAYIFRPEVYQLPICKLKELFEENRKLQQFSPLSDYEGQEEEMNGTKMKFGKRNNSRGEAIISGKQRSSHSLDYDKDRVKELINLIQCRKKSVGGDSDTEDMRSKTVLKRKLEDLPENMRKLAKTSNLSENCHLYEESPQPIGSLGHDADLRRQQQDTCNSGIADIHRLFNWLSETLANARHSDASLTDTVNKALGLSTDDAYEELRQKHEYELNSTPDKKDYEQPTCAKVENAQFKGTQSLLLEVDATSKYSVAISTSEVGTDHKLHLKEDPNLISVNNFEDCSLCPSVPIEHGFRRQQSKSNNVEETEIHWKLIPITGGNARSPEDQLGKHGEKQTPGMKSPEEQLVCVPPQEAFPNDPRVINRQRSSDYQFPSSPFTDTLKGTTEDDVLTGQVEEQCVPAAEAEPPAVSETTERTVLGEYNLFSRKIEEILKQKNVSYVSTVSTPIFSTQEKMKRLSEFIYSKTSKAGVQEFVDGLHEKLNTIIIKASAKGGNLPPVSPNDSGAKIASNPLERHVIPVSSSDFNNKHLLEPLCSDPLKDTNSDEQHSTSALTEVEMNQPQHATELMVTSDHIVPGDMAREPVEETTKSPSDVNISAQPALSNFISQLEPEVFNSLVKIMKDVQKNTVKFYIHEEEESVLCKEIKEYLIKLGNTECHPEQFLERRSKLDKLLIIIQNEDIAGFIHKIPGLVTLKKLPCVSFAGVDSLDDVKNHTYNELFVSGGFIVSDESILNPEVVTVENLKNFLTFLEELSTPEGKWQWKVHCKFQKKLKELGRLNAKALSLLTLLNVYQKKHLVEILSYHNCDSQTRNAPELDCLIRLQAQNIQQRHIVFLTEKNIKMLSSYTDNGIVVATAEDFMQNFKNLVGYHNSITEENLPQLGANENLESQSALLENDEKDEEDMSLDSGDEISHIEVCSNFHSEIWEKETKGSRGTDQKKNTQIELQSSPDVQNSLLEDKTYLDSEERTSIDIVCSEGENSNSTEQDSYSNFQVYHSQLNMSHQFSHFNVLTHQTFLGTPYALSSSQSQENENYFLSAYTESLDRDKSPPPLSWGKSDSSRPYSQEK
UniProt P02679: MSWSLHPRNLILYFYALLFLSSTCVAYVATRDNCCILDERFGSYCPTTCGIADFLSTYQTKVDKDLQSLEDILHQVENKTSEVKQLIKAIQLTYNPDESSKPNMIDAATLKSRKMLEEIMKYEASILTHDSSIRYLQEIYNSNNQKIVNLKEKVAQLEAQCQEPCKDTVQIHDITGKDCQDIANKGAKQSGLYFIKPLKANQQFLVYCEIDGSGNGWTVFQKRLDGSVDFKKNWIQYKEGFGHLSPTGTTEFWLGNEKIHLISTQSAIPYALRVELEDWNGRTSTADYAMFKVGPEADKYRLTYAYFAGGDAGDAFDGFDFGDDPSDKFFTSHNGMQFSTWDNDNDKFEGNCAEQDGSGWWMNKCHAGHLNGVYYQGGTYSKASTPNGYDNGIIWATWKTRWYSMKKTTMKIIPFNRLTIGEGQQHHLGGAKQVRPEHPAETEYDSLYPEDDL
UniProt Q5JSP0: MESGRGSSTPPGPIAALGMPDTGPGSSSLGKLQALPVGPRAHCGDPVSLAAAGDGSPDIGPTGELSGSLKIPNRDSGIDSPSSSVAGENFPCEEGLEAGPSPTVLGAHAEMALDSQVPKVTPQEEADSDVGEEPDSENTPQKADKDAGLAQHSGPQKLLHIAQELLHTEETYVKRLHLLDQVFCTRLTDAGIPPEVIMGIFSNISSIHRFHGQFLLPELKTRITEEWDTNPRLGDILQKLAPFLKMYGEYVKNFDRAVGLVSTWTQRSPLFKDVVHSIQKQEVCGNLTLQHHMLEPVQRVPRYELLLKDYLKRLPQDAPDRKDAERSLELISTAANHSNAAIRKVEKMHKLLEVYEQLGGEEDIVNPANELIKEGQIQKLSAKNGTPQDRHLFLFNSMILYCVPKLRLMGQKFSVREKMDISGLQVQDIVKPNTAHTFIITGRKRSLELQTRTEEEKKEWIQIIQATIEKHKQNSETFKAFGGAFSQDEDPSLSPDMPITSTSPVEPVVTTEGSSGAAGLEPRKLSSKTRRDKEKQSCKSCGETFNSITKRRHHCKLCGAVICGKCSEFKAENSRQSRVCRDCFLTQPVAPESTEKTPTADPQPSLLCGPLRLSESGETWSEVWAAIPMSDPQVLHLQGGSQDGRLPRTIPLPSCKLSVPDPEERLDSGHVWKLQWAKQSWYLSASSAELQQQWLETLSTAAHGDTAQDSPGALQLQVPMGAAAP
UniProt P22830: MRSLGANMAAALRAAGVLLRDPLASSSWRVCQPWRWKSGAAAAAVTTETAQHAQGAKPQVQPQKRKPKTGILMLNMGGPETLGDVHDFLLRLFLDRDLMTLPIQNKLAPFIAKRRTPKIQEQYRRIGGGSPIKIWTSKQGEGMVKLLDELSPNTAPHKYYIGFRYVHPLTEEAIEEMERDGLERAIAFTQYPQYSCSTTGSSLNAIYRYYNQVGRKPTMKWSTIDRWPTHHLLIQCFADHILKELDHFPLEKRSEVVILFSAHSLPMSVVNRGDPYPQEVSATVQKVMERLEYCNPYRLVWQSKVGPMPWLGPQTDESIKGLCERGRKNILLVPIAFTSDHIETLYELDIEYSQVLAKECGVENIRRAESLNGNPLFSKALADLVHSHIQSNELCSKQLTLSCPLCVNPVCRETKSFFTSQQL
UniProt P49327, whole entry, looked up: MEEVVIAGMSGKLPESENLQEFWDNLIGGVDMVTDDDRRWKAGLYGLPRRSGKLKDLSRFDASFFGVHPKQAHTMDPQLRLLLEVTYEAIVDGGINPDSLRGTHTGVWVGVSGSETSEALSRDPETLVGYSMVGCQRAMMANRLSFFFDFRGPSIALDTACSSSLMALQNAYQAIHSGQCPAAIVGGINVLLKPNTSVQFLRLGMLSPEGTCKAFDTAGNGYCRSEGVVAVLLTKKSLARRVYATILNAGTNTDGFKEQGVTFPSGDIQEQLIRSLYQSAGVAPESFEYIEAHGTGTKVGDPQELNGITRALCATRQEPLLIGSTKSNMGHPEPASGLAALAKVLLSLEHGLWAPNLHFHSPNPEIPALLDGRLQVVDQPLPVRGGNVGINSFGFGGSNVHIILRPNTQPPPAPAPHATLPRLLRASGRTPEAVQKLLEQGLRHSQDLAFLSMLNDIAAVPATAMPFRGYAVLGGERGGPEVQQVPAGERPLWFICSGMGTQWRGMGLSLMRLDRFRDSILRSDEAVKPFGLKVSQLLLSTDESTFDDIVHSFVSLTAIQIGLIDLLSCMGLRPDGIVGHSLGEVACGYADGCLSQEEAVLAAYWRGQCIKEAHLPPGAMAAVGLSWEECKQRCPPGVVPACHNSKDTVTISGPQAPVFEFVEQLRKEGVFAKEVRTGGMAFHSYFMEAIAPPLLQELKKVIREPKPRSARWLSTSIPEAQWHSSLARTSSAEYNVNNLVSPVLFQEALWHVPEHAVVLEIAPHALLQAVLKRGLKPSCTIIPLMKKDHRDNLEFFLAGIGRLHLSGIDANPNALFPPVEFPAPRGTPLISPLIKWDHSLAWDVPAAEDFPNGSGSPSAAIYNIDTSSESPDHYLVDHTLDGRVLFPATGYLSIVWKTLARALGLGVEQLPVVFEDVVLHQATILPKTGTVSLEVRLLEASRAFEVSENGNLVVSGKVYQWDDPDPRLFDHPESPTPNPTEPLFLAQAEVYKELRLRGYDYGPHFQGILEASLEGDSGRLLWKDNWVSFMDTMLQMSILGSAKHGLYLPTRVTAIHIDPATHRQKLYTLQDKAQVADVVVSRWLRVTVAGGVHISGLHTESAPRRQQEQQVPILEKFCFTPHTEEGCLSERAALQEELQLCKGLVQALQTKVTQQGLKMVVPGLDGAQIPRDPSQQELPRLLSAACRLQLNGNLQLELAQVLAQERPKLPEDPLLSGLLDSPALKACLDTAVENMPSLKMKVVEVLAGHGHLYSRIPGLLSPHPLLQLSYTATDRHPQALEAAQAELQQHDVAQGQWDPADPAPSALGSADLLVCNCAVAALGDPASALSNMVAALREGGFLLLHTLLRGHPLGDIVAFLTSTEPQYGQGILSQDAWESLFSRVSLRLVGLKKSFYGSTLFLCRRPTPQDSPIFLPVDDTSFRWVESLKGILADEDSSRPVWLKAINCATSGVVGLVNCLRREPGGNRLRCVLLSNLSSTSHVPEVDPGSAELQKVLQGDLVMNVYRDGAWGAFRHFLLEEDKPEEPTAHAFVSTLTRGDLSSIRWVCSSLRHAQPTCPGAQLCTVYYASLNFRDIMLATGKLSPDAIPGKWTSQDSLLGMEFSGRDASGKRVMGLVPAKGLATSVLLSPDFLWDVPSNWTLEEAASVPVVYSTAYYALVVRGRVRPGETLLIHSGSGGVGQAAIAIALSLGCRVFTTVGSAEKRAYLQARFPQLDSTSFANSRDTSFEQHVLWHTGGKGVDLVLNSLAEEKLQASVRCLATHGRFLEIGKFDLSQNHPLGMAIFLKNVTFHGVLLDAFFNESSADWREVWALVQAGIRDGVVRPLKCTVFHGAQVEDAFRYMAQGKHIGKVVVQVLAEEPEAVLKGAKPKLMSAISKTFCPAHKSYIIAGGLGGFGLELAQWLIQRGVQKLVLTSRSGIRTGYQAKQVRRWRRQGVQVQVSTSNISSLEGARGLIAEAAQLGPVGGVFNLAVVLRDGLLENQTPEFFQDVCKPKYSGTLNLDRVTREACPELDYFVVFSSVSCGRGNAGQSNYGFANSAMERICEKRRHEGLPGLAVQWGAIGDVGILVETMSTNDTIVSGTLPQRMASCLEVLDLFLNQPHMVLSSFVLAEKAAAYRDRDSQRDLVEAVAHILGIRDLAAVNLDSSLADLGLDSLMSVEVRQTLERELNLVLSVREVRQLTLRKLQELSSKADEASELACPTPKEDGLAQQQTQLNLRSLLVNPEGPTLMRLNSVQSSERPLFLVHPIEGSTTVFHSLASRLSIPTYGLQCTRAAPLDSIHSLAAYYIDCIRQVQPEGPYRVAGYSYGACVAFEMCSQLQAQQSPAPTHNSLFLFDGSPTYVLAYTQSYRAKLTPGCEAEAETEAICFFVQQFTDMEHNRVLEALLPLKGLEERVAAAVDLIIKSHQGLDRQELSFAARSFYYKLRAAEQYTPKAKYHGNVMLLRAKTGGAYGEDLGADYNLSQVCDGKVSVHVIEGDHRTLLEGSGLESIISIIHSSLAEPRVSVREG

Each target was assayed with Cc1cc(ccc1-c1ccccc1)C(=O)N1CCCN(CC1)C(=O)CCl [compound 10] (assay: probe-labelled cysteine peptide fold change vs DMSO (competition) (log2 fold change); higher = less target engagement (more negative = stronger competition)). Conditions: 10 µM; THP-1; incubation time: 4 h.
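Further: competitive profiling in live THP-1 cells: cysteine peptides tagged with an iodoacetamide desthiobiotin (IA-DTB) probe, intensity after compound treatment relative to DMSO-treated cells.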

Target | probe-labelled cysteine peptide fold change
FCF1_Q9Y324_105_CIPCITDCVMAEIEK (UniProt Q9Y324) | -0.0921
FBXW11_Q9UKB1_393_VWSTSTCEFVR (UniProt Q9UKB1) | 0.0772
FES_P07332_626_LIGVCTQK (UniProt P07332) | 0.0158
FBLN1_P23142_109_CCHCCLLGR (UniProt P23142) | -0.0833
FAM91A1_Q658Y4_653_NRVDLQHLCGYVTMLNASSQLADR (UniProt Q658Y4) | -0.182
FANCB_Q8NB91_543_LSTNPFPAPYLMPCEIGLEAK (UniProt Q8NB91) | -0.145
FAM208A_Q9UK61_538_IAQFLQFSLIQCR (UniProt Q9UK61) | -0.0583
FER_P16591_690_NCLVGENNVLK (UniProt P16591) | 0.101
FBXL19_Q6PCT2_125_FGLSLMECTICNEIVHPGCLK (UniProt Q6PCT2) | 0.208
FARSB_Q9NSD9_255_NIFIECTGTDFTK (UniProt Q9NSD9) | 0.0691
FGG_P02679_34_DNCCILDER (UniProt P02679) | -0.281
FAM208A_Q9UK61_761_QQQDTCNSGIADIHR (UniProt Q9UK61) | -0.0363
FGG_P02679_365_CHAGHLNGVYYQGGTYSK (UniProt P02679) | -0.343
FGD3_Q5JSP0_184_RLHLLDQVFCTR (UniProt Q5JSP0) | -0.128
FECH_P22830_360_ECGVENIR (UniProt P22830) | -0.132
FASN_P49327_1403_SFYGSTLFLCR (UniProt P49327) | 0.124
FEN1_P39748_182_VYAAATEDMDCLTFGSPVLMR (UniProt P39748) | -0.21

A stretch from the list above:
Target | probe-labelled cysteine peptide fold change
FGG_P02679_365_CHAGHLNGVYYQGGTYSK (UniProt P02679) | -0.343
FGD3_Q5JSP0_184_RLHLLDQVFCTR (UniProt Q5JSP0) | -0.128
